Laboratory results as given in publication doi:10.64898/2025.12.03.692022.
No constants are given. Whether binding was seen depends on the method and setting. Binding calls can cover weak binding; strength is not graded here. Values belong to the molecule of their own block, whether it stands above or below them.

Chains of the proteins cited; added tags and fusions are not shown. Lines headed by an entry give the natural chain unless they say otherwise; changes in a name come on top.
UniProt A0A3Q7I3M4: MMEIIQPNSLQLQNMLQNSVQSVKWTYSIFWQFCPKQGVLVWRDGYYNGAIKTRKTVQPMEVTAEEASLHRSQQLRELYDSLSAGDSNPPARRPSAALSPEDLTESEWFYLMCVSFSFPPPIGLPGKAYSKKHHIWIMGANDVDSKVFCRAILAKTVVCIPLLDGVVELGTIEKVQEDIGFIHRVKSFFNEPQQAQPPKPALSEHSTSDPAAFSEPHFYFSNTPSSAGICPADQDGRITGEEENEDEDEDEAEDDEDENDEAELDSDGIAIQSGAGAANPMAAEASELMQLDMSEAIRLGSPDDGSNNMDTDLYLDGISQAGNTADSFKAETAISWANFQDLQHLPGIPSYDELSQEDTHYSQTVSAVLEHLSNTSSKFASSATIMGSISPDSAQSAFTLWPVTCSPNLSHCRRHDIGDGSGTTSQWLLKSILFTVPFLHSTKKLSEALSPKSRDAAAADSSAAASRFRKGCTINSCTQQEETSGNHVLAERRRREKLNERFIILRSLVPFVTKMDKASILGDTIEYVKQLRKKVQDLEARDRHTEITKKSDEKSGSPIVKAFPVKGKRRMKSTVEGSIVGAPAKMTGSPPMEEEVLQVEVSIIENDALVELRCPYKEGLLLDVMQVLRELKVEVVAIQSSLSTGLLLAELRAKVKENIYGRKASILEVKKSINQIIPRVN

Columns and labels:
[1] = target: BBX21like (tomato, Solyc04g081020) (tomato (Solanum lycopersicum)); experiment: two-hybrid
[2] = target: BBX21 (tomato, Solyc12g089240) (tomato (Solanum lycopersicum)); experiment: two-hybrid

Molecule: BBX21like (tomato, Solyc04g081020) (from UniProt A0A3Q7GB83)
binding [2]: binds

B1: DE-ETIOLATED 1 (DET1; tomato, Solyc01g056340) (protein, UniProt Q9ZNU6 1-523)
chain: MFKTNNVTARLFERQICTPAPGTSIHRARRFYENVVPSYTIYDVECPDHSFRKFTDDGLYFVSFSRNHQDLVVYRPTWLTFSCKEEDCDTHDLPLKARKFESFFTQLYSVTLASSGELICKDFFLYMESNQFGLFATSTAQIHDAPPTGGAIQGVPSVEKITFHLLRLVDGAILDERVFHNDYVNLAHSIGAFLYDDLLAIVSLRYQRIHILQIRDSGDLVDVRAIGEFCREDDELFLNSNSQVLVNHVGNGFHHSLPQSETSFLSGIKQRLLSYIFRGIWNEADQTMRVQCLKKKFYFHFQDYIDLIIWKVQFLDRHHLLIKFGSVDGGVSRNADIHPSFFAVYNMETTEIVAFYQNSADELYFLFELFSDHFHVSSKSSLHMNFMSSHSNNIHALEQLRCTKNKATNFSQFVKKMMASLPCSCQSQSPSPYFDQSLFRFDEKLISAIDRHRQSTDHPIKFISRRQPNILKFKMKPGPEAGSTDGRTKKICSFLFHPILPLALSVQQTLFLQASVVNIHFRR
binding [1]: binds
binding [2]: binds

B2: ELONGATED HYPOCOTYL 5 (HY5; tomato, Solyc08g061130) (protein, UniProt Q9SM50 1-158)
chain: MQEQATSSIAASSLPSSSERSSSSALHHELKEGMESDDEIRRVPEMGGEATGTTSASGRDGVSAAGQAQPSAGTQRKRGRSPADKENKRLKRLLRNRVSAQQARERKKAYLIDLEARVKELETKNAELEERLSTLQNENQMLRHILKNTTAGAQEGRK
binding [1]: binds
binding [2]: binds

Results, then the molecule that gave them:

binding [1]: binds
binding [2]: binds
Molecule: AN1 (tomato bHLH, Solyc09g065100) (from UniProt A0A3Q7I3M4)

binding [1]: binds
binding [2]: binds
Molecule: COP1 homolog (tomato, Solyc12g005950) (from UniProt A0A3Q7J232)
